# Measured values taken from PMC12524283.
# Chains of the proteins cited; added tags and fusions are not shown.
# UniProt P17931: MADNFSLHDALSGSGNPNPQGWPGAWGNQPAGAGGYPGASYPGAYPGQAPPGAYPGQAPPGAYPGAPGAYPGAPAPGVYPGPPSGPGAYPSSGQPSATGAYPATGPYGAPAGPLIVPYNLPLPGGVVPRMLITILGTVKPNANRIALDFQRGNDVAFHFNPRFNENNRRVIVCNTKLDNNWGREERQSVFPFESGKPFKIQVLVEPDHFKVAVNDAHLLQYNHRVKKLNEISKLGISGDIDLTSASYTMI
# UniProt Q8NFJ5: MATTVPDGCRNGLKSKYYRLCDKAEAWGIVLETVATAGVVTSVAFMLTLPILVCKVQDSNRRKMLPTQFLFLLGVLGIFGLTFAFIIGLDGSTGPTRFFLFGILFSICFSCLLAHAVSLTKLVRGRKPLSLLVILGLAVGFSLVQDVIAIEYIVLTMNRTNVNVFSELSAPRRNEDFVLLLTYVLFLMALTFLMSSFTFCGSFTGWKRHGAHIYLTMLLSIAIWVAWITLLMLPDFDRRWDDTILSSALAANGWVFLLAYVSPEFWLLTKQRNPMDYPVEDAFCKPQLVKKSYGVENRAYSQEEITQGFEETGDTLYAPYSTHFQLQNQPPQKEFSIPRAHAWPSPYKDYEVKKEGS
# Results are given in words; binding and its absence hold for the method and conditions named. In cells and extracts the contact can be indirect. Some entries that bind do so weakly or less than the wild type.
# Columns and labels:
# [1] = molecular target: GFP-Gal-3 (in SW480 cells) (human) (UniProt P17931); assay: co-IP; SW480 cells transfected with GFP-Gal-3 plasmid (Supplementary Figure S3B)
# [2] = molecular target: Galectin-3 (SW480 cells) (human (endogenous in SW480)) (UniProt P17931); assay: co-IP; anti-Gal-3 IP, or IP without antibodies, on µMACS Protein G magnetic microbeads from total protein extracts of SW480 cells; Western blot; performed one time
# [3] = molecular target: Galectin-3 (human (endogenous in HepG2)) (UniProt P17931); assay: co-IP; co-IP of endogenous Gal-3 and GPRC5A in HepG2 cells (Supplementary Figure S2), Western blot
# [4] = molecular target: GFP-Gal-3 (in HepG2 cells) (human) (UniProt P17931); assay: co-IP; HepG2 cells transfected with GFP-Gal-3 plasmid; IP with µMACS anti-GFP magnetic microbeads, µMACS Protein G microbeads as negative control; Western blot with anti-GPRC5A and anti-Gal-3
binding [1],binding [2],binding [3],binding [4],Substance
binds,binds,–,–,GPRC5A (SW480 cells) (from UniProt Q8NFJ5 1-357) (receptor)
–,–,binds,binds,orphan G-protein-coupled receptor GPRC5A (from UniProt Q8NFJ5 1-357)
